Measured values reported in PubChem BioAssay AID1487 (National Center for Advancing Translational Sciences (NCATS), 2009).
The list shows a part of the results. Shown are side measurements of this screen, not its main read-out; they come without a call. Most of these compounds were active or inconclusive in the main read-out, so they are no random draw. Words in brackets tell the shape of the fitted curve; partial curves, single points and poor fits give uncertain potencies.

Assay: qHTS Assay for Modulators of Lamin A Splicing
Conditions: HeLa LMNA splicing GFP/RFP minigene ratio, 48 h
Procedure, shortened: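 S3 HeLa cells stably expressing lamin A-EGFP splicing minigene plus DsRed2, 600 cells/well, 48 h compound exposure at 37C. Laser-scanning cytometry; analysed as GFP (500-530 nm)/RFP (575-640 nm) total intensity ratio; 0.5% DMSO vehicle.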

[1] = measured here: GFP splicing reporter channel
[2] = measured here: RFP viability control channel

| Compound | AC50 [1] | AC50 [2] |
| --- | --- | --- |
| Cc1sc2ncnc(NCC(c3ccco3)N(C)C)c2c1C (stereo not drawn) | 11.2 µM [rising, partial curve, poor fit] | 20 µM [rising, single point] |
| CCn1c(C)c(P(c2ccccc2)c2ccccc2)[n+]2ccccc12 | – | 2.24 µM [rising, full curve, poor fit] |
| C=CCNCCCCOc1ccc(OCc2ccccc2)cc1 | 15.8 µM [falling, single point] | – |
| COc1ccc(CCNc2nc(N3CCCCC3)nc(N3CCCCC3)n2)cc1OC | 17.8 µM [rising, single point] | 17.8 µM [rising, partial curve] |
| Fc1ccc([C@@H]2CCNC[C@H]2COc2ccc3c(c2)OCO3)cc1 | 14.1 µM [falling, partial curve, poor fit] | 22.4 µM [falling, partial curve] |
| CCOc1ccc(-c2nc(N)ncc2-c2ccc(OC)cc2)c(O)c1 | 7.08 µM [rising, full curve, poor fit] | 10 µM [rising, partial curve] |
| CO/N=C/C(=N\Nc1ccc(OC)cc1)C(=O)c1ccc(F)cc1 | 12.6 µM [falling, partial curve] | 22.4 µM [falling, partial curve, poor fit] |
| CCOC(=O)c1c(C)[nH]c(C)c1C(=O)COC(=O)c1cc2ccccc2cc1OC | – | 11.2 µM [rising, single point] |
| CCNS(=O)(=O)c1ccc(CCC(N)=O)cc1 | 0.316 µM [rising, partial curve] | – |
| C=CCOC(=O)C1=C(C)NC(SCC)=C(C#N)C1c1ccc(Cl)cc1 (stereo not drawn) | 10 µM [falling, partial curve] | 35.5 µM [falling, single point] |
| CN(C/C=C/C#CC(C)(C)C)Cc1cccc2ccccc12 | – | 0.0158 µM [falling, full curve, poor fit] |
| Oc1ccc(-c2n[nH]c(=S)n2-c2ccc3c(c2)OCCO3)c(O)c1 | – | 3.98 µM [rising, full curve] |
| OC(CN1C2=NCCCN2c2ccccc21)c1ccc2c(c1)OCO2 (stereo not drawn) | – | 7.08 µM [rising, partial curve] |
| CCCOc1cccc(C(=O)Nc2cccc3cccnc23)c1 | 35.5 µM [falling, single point] | – |
| CCC(C)(C)n1nnnc1CN1CCN(c2nc3ccc(C)cc3cc2C#N)CC1 | – | 20 µM [rising, single point] |
| O=C(/C=C/c1ccccc1[N+](=O)[O-])c1ccccc1Br | – | 11.2 µM [rising, partial curve] |
| Cc1occc1C(=O)NNC(=O)Nc1ccc(Cl)c(Cl)c1 | – | 12.6 µM [rising, partial curve] |
| CC(C)OCCCNC(=O)c1ccc(CSc2nc3cccnc3n2Cc2ccccc2)cc1 | 0.398 µM [falling, full curve, poor fit] | – |
| CC(C)(c1ccccc1)c1ccc(OCCn2cnc3ccccc3c2=O)cc1 | 10 µM [rising, single point] | 31.6 µM [rising, single point] |

17 of the compounds above, with tabs:
Compound	AC50 [1]	AC50 [2]
Cc1sc2ncnc(NCC(c3ccco3)N(C)C)c2c1C (stereo not drawn)	11.2 µM [rising, partial curve, poor fit]	20 µM [rising, single point]
CCn1c(C)c(P(c2ccccc2)c2ccccc2)[n+]2ccccc12	–	2.24 µM [rising, full curve, poor fit]
C=CCNCCCCOc1ccc(OCc2ccccc2)cc1	15.8 µM [falling, single point]	–
COc1ccc(CCNc2nc(N3CCCCC3)nc(N3CCCCC3)n2)cc1OC	17.8 µM [rising, single point]	17.8 µM [rising, partial curve]
Fc1ccc([C@@H]2CCNC[C@H]2COc2ccc3c(c2)OCO3)cc1	14.1 µM [falling, partial curve, poor fit]	22.4 µM [falling, partial curve]
CCOc1ccc(-c2nc(N)ncc2-c2ccc(OC)cc2)c(O)c1	7.08 µM [rising, full curve, poor fit]	10 µM [rising, partial curve]
CO/N=C/C(=N\Nc1ccc(OC)cc1)C(=O)c1ccc(F)cc1	12.6 µM [falling, partial curve]	22.4 µM [falling, partial curve, poor fit]
CCOC(=O)c1c(C)[nH]c(C)c1C(=O)COC(=O)c1cc2ccccc2cc1OC	–	11.2 µM [rising, single point]
CCNS(=O)(=O)c1ccc(CCC(N)=O)cc1	0.316 µM [rising, partial curve]	–
C=CCOC(=O)C1=C(C)NC(SCC)=C(C#N)C1c1ccc(Cl)cc1 (stereo not drawn)	10 µM [falling, partial curve]	35.5 µM [falling, single point]
CN(C/C=C/C#CC(C)(C)C)Cc1cccc2ccccc12	–	0.0158 µM [falling, full curve, poor fit]
Oc1ccc(-c2n[nH]c(=S)n2-c2ccc3c(c2)OCCO3)c(O)c1	–	3.98 µM [rising, full curve]
OC(CN1C2=NCCCN2c2ccccc21)c1ccc2c(c1)OCO2 (stereo not drawn)	–	7.08 µM [rising, partial curve]
CCCOc1cccc(C(=O)Nc2cccc3cccnc23)c1	35.5 µM [falling, single point]	–
CCC(C)(C)n1nnnc1CN1CCN(c2nc3ccc(C)cc3cc2C#N)CC1	–	20 µM [rising, single point]
O=C(/C=C/c1ccccc1[N+](=O)[O-])c1ccccc1Br	–	11.2 µM [rising, partial curve]
CC(C)OCCCNC(=O)c1ccc(CSc2nc3cccnc3n2Cc2ccccc2)cc1	0.398 µM [falling, full curve, poor fit]	–

Look-ups from the entries so far:
Entry of `CCNS(=O)(=O)c1ccc(CCC(N)=O)cc1` under AC50 [1]: 0.316 µM [rising, partial curve]
Entry of `CCCOc1cccc(C(=O)Nc2cccc3cccnc23)c1` under AC50 [1]: 35.5 µM [falling, single point]

(further entries)

| Compound | AC50 [1] | AC50 [2] |
| --- | --- | --- |
| O=c1[nH]cnc2c1ncn2[C@H]1CC[C@@H](CO)O1 | 0.0398 µM [falling, full curve, poor fit] | 12.6 µM [falling, single point] |
| CC(=O)N1CCN(c2ccc(NCc3ccc(C(C)C)cc3)cc2)CC1 | – | 17.8 µM [rising, partial curve, poor fit] |
| COc1cc2[nH]c(=S)nc(NCCC(C)C)c2cc1OC | 0.00447 µM [falling, full curve, poor fit] | – |
| COCCCn1c(C)csc1=Nc1cccnc1 | 35.5 µM [rising, single point] | – |
| O=C(CCC(=O)N1CC2CCCN2c2ccccc21)NCc1ccc(Cl)cc1 (stereo not drawn) | – | 0.00316 µM [falling, full curve, poor fit] |
| CC(C)Sc1ccc([N+](=O)[O-])cc1C(=O)Nc1ccncc1 | 11.2 µM [falling, partial curve, poor fit] | – |
| COc1ccc2cnn(-c3ccccc3C)c(=O)c2c1OC | – | 35.5 µM [rising, single point] |
| COc1ccccc1-c1cc(C(=O)N2CCN(c3ccccc3OC)CC2)no1 | 35.5 µM [falling, single point] | 22.4 µM [falling, single point] |
| CCOC(=O)N1CCN(C(=S)Nc2ccccc2C)CC1 | – | 12.6 µM [rising, partial curve, poor fit] |
| CCCC(C)NC(=O)c1cccc(Oc2ccccc2)c1 (stereo not drawn) | – | 7.94 µM [rising, full curve, poor fit] |
| CC(=O)C1=C(O)C(=O)N(c2nccs2)C1c1ccc(F)cc1 (stereo not drawn) | 31.6 µM [rising, single point] | 35.5 µM [rising, single point] |
| FC(F)(F)C1=CC(c2ccc(Cl)cc2)=NCCN1 | 2.51 µM [rising, full curve, poor fit] | 2.82 µM [rising, single point] |
| COc1ccc(-c2noc(N3CCC(C(=O)N4CCN(c5cccc(C)c5C)CC4)CC3)n2)cc1 | 11.2 µM [falling, partial curve] | – |
| CC(OC(=O)c1ccccc1Nc1ccc(SC(F)F)cc1)C(N)=O (stereo not drawn) | 10 µM [rising, partial curve, poor fit] | – |
| COc1cc([N+](=O)[O-])ccc1NC(=O)COC(=O)c1n[nH]c2ccccc12 | 10 µM [rising, partial curve] | 10 µM [rising, partial curve] |
| COc1ccccc1CNc1ncnc2ccc(-c3ccc(C(=O)N(C)C)cc3)cc12 | 22.4 µM [falling, partial curve, poor fit] | – |
| Cn1c(NCc2ccccc2)nc2c1c(=O)n(Cc1ccc(Br)cc1)c(=O)n2C | – | 25.1 µM [rising, single point] |
| CCOC(=O)N1CCC(NS(=O)(=O)c2ccc3c(c2)CCN3C(C)=O)CC1 | – | 11.2 µM [rising, partial curve] |
| O=C(Nc1sc2c(c1-c1nc3ccccc3[nH]1)CCCC2)C1CC1 | 3.98 µM [rising, single point] | – |

| Compound | AC50 [1] | AC50 [2] |
| --- | --- | --- |
| N/C(=N\OC(=O)Cc1ccc(Cl)cc1)c1ccncc1 | – | 10 µM [rising, partial curve, poor fit] |
| O=C(NCc1cccs1)c1ccc(CSc2nc3cccnc3n2Cc2ccccc2F)cc1 | 35.5 µM [falling, partial curve] | 28.2 µM [falling, partial curve] |
| CCCCOc1ccccc1CC1C(=O)Nc2ccc(Br)cc21 (stereo not drawn) | 35.5 µM [falling, single point] | 35.5 µM [falling, partial curve] |
| O=[N+]([O-])c1cc(S(=O)(=O)C(F)(F)F)ccc1N1CCN(c2ccccc2)CC1 | – | 35.5 µM [rising, single point] |
| OCCNc1ncnc2ccc(Br)cc12 | 35.5 µM [rising, single point] | 31.6 µM [rising, single point] |
| CC(=O)NC(Cc1ccc(F)c(F)c1)C(=O)NC1CCN(C(=O)c2ccc(C)cc2)CC1 (stereo not drawn) | – | 0.0251 µM [falling, full curve, poor fit] |
| c1ccc(CNc2nc(-c3cccs3)nc3ccccc23)cc1 | – | 20 µM [rising, single point] |
| O=C(O)C1CC=CCC1C(=O)N1CCN(c2nc(-c3ccccc3Cl)c3cc(Br)ccc3n2)CC1 (stereo not drawn) | 35.5 µM [falling, single point] | 7.94 µM [falling, partial curve, poor fit] |
| CC1CCCCN1C(=O)c1ccc(S(=O)(=O)N2CCCCC2C)cc1 (stereo not drawn) | 20 µM [rising, single point] | 12.6 µM [rising, single point] |
| Cc1cc(C)c(NC(=O)Cn2cnc3c(oc4ccccc43)c2=O)c(C)c1 | 35.5 µM [rising, partial curve] | 35.5 µM [rising, single point] |
| Clc1ccc(Cn2c(/C=C/c3ccco3)nc3ccccc32)cc1 | 15.8 µM [rising, partial curve] | 15.8 µM [rising, single point] |
| CSc1ccccc1NC(=O)COc1ccc(Cl)cc1 | – | 35.5 µM [rising, single point] |
| O=C(Nc1ccc(C(F)(F)F)cc1)c1cc(-c2cccnc2)nc2ccc(Br)cc12 | – | 17.8 µM [falling, partial curve, poor fit] |
| Oc1ccc(CNc2ccccc2F)c2cccnc12 | – | 14.1 µM [rising, single point] |
| COc1ccc(N2CCN(c3oc(COc4ccccc4Cl)nc3C#N)CC2)cc1 | 17.8 µM [rising, single point] | 35.5 µM [rising, single point] |
| Cc1ccc2nc(SCc3nc4c(cnn4-c4ccccc4)c(=O)[nH]3)[nH]c2c1 | – | 35.5 µM [falling, partial curve] |
| CCOC(=O)c1cnc(-n2nc(C)cc2C)nc1NNc1cc(-c2ccccc2)nc(C)n1 | – | 5.62 µM [rising, single point] |
| CC(Oc1ccc(Br)cc1Br)C(=O)NC1CCCC1 (stereo not drawn) | 3.98 µM [falling, single point] | – |
| CCOc1ccc2nc(NCCNC(=O)C3CC3)c(C)cc2c1 | 11.2 µM [rising, partial curve] | 3.55 µM [rising, partial curve, poor fit] |
